Source: the supplement of paper PMC11732987, “Enantioselective OTUD7B fragment discovery through chemoproteomics screening and high-throughput optimisation” (Communications Chemistry, 2025)
The list shows a part of the results. The data scatter; read single values as rough.

Protein sequences, listed by entry. Tags and fused reporters are not part of them. Lines headed by an entry give the natural chain unless they say otherwise; changes in a name come on top. Residues count along the entry.
UniProt Q13614: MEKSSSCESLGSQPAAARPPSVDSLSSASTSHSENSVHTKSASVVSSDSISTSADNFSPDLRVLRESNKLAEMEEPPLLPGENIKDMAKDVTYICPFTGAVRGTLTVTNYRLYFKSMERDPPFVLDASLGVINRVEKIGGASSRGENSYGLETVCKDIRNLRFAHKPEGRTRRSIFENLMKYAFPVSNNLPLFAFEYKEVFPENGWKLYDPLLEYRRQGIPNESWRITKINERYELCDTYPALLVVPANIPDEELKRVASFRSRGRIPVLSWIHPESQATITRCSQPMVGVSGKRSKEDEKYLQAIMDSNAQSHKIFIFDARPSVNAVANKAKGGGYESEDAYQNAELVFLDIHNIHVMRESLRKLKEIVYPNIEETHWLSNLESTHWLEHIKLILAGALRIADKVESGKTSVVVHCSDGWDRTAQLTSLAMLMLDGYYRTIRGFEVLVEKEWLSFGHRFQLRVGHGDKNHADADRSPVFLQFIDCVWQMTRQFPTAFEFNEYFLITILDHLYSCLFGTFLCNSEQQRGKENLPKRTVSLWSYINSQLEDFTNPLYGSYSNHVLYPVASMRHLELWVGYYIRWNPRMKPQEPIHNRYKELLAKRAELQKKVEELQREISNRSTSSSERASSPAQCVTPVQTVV
UniProt P35580, whole entry, looked up: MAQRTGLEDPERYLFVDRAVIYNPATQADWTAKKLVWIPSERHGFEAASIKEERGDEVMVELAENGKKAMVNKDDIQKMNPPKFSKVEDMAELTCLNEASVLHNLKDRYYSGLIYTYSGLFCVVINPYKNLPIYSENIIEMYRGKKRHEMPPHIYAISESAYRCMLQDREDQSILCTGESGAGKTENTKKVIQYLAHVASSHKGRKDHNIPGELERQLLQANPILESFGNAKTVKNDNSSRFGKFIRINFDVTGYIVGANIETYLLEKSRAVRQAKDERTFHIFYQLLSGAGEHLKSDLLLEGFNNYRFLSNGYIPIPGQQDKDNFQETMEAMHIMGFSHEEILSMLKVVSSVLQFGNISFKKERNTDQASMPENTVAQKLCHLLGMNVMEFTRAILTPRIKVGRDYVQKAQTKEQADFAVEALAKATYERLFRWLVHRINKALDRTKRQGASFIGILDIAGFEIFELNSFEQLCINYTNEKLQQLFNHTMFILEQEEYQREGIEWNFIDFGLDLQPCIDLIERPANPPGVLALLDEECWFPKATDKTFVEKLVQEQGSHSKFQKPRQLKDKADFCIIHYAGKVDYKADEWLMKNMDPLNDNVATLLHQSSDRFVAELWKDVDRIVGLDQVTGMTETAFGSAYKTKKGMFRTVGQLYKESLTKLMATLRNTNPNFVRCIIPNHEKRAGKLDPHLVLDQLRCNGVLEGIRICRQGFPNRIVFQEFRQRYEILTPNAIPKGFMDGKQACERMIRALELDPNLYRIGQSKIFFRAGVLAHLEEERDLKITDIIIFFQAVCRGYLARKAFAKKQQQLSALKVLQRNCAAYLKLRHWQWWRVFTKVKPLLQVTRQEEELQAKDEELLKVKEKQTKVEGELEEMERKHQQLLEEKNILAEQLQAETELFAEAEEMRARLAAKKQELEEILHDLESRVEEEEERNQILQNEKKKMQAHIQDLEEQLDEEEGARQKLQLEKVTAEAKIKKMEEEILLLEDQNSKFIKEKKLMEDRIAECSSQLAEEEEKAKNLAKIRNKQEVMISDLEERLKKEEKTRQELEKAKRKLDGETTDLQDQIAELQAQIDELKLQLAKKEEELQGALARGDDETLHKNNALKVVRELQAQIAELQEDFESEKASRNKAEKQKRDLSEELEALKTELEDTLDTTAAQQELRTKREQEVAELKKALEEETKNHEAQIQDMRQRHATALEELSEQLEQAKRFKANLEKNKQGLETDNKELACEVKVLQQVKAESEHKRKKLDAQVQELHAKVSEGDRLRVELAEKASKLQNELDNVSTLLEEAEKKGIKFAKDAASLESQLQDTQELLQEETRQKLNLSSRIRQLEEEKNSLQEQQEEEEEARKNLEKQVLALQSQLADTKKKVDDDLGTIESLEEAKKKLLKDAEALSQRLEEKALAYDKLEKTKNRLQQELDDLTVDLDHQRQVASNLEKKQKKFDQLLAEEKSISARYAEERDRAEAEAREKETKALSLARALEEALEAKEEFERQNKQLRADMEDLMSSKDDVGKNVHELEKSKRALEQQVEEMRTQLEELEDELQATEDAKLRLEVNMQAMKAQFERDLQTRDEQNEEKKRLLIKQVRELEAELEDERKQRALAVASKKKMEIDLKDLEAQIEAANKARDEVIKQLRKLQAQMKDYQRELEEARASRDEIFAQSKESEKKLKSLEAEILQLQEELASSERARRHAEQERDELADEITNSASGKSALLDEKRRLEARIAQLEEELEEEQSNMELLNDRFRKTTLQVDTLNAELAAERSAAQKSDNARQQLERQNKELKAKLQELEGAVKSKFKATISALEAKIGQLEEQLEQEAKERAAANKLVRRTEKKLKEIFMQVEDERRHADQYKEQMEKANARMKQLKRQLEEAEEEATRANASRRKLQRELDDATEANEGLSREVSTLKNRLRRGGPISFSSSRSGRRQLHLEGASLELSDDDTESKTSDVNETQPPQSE
UniProt B2RTY4: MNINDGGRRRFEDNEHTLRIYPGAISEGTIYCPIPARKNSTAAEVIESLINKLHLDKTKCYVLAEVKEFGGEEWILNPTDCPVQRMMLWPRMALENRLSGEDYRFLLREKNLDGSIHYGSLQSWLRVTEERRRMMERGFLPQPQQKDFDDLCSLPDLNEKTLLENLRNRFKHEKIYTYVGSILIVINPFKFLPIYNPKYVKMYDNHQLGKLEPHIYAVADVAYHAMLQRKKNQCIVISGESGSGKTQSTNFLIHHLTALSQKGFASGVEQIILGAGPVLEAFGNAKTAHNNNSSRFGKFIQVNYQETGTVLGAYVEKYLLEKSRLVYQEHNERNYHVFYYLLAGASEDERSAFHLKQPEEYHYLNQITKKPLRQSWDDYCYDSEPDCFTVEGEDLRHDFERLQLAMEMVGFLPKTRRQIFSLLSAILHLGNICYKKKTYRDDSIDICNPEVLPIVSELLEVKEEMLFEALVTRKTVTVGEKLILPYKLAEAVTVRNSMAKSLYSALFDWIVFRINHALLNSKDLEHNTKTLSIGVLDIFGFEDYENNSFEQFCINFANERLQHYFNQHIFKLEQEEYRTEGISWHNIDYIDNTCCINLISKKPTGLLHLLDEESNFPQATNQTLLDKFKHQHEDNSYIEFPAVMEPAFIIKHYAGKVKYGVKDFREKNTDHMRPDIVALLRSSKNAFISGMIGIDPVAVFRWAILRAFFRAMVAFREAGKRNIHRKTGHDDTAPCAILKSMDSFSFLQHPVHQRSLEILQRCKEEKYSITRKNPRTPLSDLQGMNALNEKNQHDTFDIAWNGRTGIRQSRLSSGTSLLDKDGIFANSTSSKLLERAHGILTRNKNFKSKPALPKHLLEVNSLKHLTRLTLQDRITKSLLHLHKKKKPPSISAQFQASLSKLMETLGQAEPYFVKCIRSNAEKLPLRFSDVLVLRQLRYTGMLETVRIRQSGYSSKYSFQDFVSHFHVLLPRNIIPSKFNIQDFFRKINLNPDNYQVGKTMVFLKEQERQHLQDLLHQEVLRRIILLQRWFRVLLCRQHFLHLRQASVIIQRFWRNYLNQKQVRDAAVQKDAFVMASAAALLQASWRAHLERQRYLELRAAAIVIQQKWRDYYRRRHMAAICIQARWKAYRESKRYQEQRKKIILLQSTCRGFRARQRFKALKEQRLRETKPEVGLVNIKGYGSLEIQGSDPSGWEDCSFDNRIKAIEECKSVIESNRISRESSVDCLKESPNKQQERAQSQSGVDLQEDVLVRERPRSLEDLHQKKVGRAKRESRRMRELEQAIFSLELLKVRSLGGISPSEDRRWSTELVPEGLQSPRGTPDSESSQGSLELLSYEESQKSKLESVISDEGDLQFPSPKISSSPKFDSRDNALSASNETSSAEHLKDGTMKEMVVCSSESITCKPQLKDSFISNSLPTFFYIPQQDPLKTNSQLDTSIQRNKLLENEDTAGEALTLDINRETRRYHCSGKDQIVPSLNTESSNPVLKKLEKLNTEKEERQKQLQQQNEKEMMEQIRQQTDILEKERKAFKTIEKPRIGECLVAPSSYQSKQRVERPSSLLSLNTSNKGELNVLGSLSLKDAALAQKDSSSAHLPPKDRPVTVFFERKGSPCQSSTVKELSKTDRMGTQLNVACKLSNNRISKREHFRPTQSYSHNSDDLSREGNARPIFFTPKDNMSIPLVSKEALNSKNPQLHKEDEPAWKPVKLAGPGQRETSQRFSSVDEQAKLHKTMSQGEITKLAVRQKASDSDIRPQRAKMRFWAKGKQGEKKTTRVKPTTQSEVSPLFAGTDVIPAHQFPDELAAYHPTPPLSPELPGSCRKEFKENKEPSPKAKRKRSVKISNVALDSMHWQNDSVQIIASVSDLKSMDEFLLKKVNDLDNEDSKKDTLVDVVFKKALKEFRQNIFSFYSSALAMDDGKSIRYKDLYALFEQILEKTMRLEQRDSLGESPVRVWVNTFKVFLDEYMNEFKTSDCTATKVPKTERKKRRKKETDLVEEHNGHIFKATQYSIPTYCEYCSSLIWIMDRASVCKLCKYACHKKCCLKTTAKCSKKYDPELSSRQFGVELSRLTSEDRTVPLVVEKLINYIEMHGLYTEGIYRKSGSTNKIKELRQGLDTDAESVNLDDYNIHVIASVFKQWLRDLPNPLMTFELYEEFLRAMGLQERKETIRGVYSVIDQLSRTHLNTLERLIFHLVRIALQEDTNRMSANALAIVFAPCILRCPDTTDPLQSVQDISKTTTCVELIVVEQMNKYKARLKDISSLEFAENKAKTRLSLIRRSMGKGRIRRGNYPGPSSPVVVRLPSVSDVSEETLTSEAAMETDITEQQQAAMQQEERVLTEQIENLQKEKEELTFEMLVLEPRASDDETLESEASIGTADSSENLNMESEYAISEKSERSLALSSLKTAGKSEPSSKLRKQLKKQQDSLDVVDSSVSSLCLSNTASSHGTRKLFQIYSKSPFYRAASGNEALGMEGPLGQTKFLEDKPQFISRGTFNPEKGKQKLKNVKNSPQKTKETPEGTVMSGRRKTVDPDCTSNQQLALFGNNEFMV
UniProt Q9NYA4: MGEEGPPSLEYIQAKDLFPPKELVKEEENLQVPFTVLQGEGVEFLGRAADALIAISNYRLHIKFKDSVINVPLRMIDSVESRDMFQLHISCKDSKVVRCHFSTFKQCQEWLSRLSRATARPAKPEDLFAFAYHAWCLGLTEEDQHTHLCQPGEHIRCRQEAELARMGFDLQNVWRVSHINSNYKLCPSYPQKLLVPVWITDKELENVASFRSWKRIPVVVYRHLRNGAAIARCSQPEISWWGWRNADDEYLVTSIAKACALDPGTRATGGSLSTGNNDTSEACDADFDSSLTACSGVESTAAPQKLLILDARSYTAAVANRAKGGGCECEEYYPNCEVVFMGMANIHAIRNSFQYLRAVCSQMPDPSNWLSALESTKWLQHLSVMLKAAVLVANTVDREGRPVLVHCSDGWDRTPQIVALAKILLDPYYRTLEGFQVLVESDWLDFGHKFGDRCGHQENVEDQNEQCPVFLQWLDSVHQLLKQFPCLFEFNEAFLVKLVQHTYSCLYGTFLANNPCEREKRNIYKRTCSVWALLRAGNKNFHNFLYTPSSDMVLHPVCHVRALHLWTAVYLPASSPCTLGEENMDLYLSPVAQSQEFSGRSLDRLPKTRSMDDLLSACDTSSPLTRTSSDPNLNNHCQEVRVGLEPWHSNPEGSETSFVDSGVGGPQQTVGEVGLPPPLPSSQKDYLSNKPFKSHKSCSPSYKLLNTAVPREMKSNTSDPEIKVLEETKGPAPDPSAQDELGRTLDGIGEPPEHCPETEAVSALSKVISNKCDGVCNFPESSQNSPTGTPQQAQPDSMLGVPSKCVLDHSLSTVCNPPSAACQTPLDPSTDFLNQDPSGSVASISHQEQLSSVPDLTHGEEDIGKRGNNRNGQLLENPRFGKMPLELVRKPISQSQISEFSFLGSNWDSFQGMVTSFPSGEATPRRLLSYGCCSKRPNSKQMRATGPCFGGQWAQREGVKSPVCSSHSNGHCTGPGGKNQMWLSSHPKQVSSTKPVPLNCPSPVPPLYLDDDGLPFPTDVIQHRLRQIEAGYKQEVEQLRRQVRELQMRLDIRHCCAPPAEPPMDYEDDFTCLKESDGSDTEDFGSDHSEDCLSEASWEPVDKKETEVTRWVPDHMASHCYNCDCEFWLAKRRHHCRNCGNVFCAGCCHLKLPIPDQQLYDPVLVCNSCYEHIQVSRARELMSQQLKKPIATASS
UniProt O43347, 1-21: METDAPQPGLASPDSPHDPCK

The targets below were run with ClCC(=O)N[C@@H]1CCCc2ccccc12 (assay: log2 mean competition ratio of IA-DTB cysteine labelling (DMSO/compound) (log2 ratio); higher = stronger cysteine engagement by compound). Settings: 50 µM; treatment time: 4 h; cell line lysate: HEK293T.
Description: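 IA-DTB competitive cysteine chemoproteomics in HEK293T RIPA lysate. Lysates were treated with compound 29 or 30 at 50 or 200 µM for 4 h, then IA-DTB (500 µM, 1 h), trypsin-digested, NeutrAvidin-enriched and analysed by diaPASEF. Competition ratio = intensity DMSO / intensity compound (n=4 treated, n=64 DMSO); binding: mean log2 CR ≥ 1 and p ≤ 0.05 plus QC filters. Target is the cysteine site.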

Target	log2 mean competition ratio
MYH14 C324 (UniProt Q7Z406)	-0.00586
MYH9 C1379 (UniProt P35579)	-0.294
MTMR2 C417 (UniProt Q13614)	-0.394
MYO6 C587 (UniProt Q9UM54)	-0.17
NAA25 C339 (UniProt Q14CX7)	-0.0038
MTARC1 C273	-0.295
MTMR12 C694 (UniProt Q9C0I1)	0.0318
MVB12A C33 (UniProt Q96EY5)	-0.119
MSH3 C847 (UniProt P20585)	0.0663
MYH10 C1011 (UniProt P35580)	0.0198
MYO9A C735 (UniProt B2RTY4)	-0.284
MRPL18 C125 (UniProt Q9H0U6)	0.0516
MTMR4 C637 (UniProt Q9NYA4)	0.045
MYH10 C701 (UniProt P35580)	-0.339
MTO1 C104 (UniProt Q9Y2Z2)	0.148
MSI1 C20 (UniProt O43347)	-0.386
MTCH1 C385 (UniProt Q9NZJ7)	0.0334
NAMPT C401	0.0191
MYCBP2 C1497 (UniProt O75592)	-0.205
MYO10 C1874 (UniProt Q9HD67)	-0.0925

Same assay, conditions: 200 µM; treatment time: 4 h; cell line lysate: HEK293T

Target	log2 mean competition ratio
MYH14 C324 (UniProt Q7Z406)	0.0884
MYH9 C1379 (UniProt P35579)	-0.359
MTMR2 C417 (UniProt Q13614)	-0.48
MYO6 C587 (UniProt Q9UM54)	-0.197
NAA25 C339 (UniProt Q14CX7)	0.0663
MTARC1 C273	-0.121
MTMR12 C694 (UniProt Q9C0I1)	0.384
MVB12A C33 (UniProt Q96EY5)	-0.227
MSH3 C847 (UniProt P20585)	0.00809
MYH10 C1011 (UniProt P35580)	-0.215
MYO9A C735 (UniProt B2RTY4)	0.438
MRPL18 C125 (UniProt Q9H0U6)	-0.0962
MTMR4 C637 (UniProt Q9NYA4)	0.275
MYH10 C701 (UniProt P35580)	0.00466
MTO1 C104 (UniProt Q9Y2Z2)	0.104
MSI1 C20 (UniProt O43347)	0.071
MTCH1 C385 (UniProt Q9NZJ7)	-0.303
NAMPT C401	-0.0241
MYCBP2 C1497 (UniProt O75592)	-0.0774
MYO10 C1874 (UniProt Q9HD67)	0.109
